The source of these data is article PMC10669082.

Chains of the proteins cited; added tags and fusions are not shown.
UniProt Q92793: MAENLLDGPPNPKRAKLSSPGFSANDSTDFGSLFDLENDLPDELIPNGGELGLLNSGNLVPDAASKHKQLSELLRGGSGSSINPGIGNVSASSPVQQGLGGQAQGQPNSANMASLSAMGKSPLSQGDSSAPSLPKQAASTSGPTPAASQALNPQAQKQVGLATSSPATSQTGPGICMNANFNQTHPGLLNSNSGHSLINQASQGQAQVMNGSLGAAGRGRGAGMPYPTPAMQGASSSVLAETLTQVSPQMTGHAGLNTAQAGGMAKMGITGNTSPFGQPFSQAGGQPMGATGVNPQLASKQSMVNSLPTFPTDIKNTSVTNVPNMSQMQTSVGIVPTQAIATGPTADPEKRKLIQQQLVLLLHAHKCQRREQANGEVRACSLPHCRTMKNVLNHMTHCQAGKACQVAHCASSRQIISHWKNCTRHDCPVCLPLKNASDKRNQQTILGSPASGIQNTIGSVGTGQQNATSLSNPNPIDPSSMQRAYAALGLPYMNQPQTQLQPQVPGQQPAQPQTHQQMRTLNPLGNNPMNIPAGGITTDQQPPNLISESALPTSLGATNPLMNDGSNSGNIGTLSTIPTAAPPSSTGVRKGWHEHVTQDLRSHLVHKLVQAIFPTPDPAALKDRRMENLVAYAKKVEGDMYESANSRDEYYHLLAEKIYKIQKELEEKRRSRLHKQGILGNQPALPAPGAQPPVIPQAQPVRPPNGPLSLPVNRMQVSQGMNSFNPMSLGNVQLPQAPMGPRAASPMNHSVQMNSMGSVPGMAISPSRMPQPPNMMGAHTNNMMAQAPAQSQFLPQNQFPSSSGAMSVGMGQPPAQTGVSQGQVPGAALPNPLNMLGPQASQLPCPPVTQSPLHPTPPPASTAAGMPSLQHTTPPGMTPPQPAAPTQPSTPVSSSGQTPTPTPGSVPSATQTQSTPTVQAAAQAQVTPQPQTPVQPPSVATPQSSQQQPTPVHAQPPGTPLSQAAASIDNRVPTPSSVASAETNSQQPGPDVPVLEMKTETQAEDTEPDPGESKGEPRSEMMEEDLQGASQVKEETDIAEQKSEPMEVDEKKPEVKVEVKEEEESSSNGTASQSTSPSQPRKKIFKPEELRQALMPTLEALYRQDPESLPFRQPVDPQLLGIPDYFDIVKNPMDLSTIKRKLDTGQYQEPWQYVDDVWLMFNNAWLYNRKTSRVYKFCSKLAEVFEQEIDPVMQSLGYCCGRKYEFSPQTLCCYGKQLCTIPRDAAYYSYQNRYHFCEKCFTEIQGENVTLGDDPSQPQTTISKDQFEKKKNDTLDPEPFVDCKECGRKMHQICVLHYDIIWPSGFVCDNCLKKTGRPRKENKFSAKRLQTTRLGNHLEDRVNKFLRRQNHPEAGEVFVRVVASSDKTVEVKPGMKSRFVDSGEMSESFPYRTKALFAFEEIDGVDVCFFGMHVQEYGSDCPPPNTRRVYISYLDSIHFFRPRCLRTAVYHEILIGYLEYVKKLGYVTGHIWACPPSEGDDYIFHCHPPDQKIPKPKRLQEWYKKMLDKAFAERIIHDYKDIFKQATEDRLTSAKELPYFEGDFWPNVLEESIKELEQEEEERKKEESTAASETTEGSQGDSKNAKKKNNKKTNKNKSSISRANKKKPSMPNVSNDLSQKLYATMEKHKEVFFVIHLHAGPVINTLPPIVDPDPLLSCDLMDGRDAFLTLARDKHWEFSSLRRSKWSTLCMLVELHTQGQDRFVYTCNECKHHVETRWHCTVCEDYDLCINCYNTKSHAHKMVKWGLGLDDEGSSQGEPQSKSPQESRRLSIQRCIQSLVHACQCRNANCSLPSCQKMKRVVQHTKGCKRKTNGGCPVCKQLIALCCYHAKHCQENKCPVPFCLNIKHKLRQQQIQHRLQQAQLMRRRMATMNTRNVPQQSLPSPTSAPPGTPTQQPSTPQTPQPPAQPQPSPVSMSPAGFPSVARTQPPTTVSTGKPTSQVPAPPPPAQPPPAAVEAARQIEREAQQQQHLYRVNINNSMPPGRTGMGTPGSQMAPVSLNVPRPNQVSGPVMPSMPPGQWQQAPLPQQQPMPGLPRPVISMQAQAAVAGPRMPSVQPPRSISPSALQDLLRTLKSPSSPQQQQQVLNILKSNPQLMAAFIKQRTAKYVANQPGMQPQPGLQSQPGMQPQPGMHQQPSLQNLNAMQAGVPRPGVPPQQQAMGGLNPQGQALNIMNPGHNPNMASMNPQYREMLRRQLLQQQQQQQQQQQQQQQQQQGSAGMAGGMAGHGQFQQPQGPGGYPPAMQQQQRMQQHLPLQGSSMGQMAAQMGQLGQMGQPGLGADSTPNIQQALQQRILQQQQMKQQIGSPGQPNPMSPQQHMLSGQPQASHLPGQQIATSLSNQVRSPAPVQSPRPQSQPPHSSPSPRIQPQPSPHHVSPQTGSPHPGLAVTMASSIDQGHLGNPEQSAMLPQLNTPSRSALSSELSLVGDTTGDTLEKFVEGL
UniProt P10275: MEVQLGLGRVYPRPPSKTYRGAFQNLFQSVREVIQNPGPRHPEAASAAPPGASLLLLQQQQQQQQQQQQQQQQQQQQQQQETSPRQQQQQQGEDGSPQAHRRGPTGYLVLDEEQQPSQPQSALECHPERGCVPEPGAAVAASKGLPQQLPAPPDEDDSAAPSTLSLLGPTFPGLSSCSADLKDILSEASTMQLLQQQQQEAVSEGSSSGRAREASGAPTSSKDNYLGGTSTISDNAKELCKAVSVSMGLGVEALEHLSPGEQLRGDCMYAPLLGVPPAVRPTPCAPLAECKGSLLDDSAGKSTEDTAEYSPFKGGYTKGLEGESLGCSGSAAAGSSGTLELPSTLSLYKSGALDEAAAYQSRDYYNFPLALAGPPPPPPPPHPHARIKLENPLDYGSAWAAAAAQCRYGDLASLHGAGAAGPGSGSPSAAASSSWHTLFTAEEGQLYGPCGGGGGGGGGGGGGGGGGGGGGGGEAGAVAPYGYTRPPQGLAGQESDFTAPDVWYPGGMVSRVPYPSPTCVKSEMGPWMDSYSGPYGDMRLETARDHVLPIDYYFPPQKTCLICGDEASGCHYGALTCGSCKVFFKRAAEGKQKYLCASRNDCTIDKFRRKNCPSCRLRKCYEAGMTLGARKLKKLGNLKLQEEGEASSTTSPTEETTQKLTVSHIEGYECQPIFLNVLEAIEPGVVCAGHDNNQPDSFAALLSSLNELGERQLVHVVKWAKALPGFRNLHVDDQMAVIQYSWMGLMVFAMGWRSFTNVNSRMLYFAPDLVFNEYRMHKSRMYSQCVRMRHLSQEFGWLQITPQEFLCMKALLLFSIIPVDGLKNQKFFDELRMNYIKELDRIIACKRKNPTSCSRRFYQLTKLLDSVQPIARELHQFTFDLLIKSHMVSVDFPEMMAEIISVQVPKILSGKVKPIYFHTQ

These are yes or no findings as the source states them, for the method shown. Binding seen in cells or lysates may run through a third protein. Some binding calls cover weakened binding; strength is not graded here.

The target in this test is CREB-binding protein (CBP) (human (endogenous in BPH-1)) (UniProt Q92793). Briefly: co-IP; BPH-1 cell lysate supernatant incubated overnight at 4 °C with anti-CBP antibody or IgG, then magnetic beads 1 h at room temperature; precipitate blotted for AR and CBP.

For the substance “androgen receptor (AR) (from UniProt P10275 1-920)”, the binding result is listed as “binds”.
